PubChem BioAssay AID1259308 – NCATS | 2017
Purpose: 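Candidate targets for better recombinant protein yield in mammalian cells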 (primary screen). Cells: human HEK293 embryonic kidney cells stably expressing firefly luciferase (HEK-CMV-Luc2-Hygro). Knock-down reagent: single siRNA against human genes, 0.8 pmol siRNA per well. Time to read-out: 72 h. Detection: 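Luciferase light (ONE-Glo) measured on one replicate plate set and viability (CellTiter-Glo) on the other, scaled to a negative control siRNA, with robust z-scores and luciferase per cell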. Direction: total luciferase, z-score and total luciferase, % of control: higher = more reporter protein produced; luciferase per cell, z-score: higher = more reporter output per viable cell; viable cells, % of control: higher = more viable cells. Rule for the call: 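Active when the median/MAD z-score for overall luciferase is greater than 3; a gene was taken forward for validation with new siRNAs if at least two of its three siRNAs passed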. Meaning of the calls: active = raised luciferase; inactive = no rise.
In all, the deposit lists about 59,000 reagents; below is an unselected part. Of all reagents, about 1,510 (2.6%) got an active call. 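Calls use total luciferase alone and ignore viability, so some active siRNAs may act by altering cell number.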 The numbers tell different reagents against one gene apart.

total luciferase, z-score | total luciferase, % of control | luciferase per cell, z-score | viable cells, % of control | outcome | target gene | reagent no.
1.99 | 122 | 1.56 | 90 | inactive | ANKRD29 (GeneID 147463) | 1
0.323 | 88.3 | -0.000395 | 98.7 | inactive | ANKRD29 (GeneID 147463) | 2
1.31 | 108 | 0.975 | 93.4 | inactive | ANKRD29 (GeneID 147463) | 3
1.84 | 119 | 0.895 | 105 | inactive | BST1 (GeneID 683) | 1
0.548 | 92.8 | 2.17 | 58.6 | inactive | BST1 (GeneID 683) | 2
0.427 | 90.4 | -0.114 | 104 | inactive | BST1 (GeneID 683) | 3
-0.65 | 69 | -0.821 | 95.7 | inactive | AMPH (GeneID 273) | 1
0.496 | 91.8 | 0.457 | 90.9 | inactive | AMPH (GeneID 273) | 2
-0.673 | 68.5 | -0.728 | 92.7 | inactive | AMPH (GeneID 273) | 3
1.2 | 106 | 1.45 | 80.7 | inactive | PMS2 (GeneID 5395) | 1
-2.68 | 28.6 | -2.15 | 56.3 | inactive | PMS2 (GeneID 5395) | 2
-0.253 | 76.9 | -0.213 | 90.8 | inactive | PMS2 (GeneID 5395) | 3
0.141 | 84.7 | 0.826 | 76.1 | inactive | CACHD1 (GeneID 57685) | 1
1.93 | 120 | 1.12 | 100 | inactive | CACHD1 (GeneID 57685) | 2
0.113 | 84.1 | -0.458 | 106 | inactive | CACHD1 (GeneID 57685) | 3
-0.011 | 81.7 | -0.0198 | 91.7 | inactive | BRPF3 (GeneID 27154) | 1
-0.674 | 68.5 | -0.733 | 92.8 | inactive | BRPF3 (GeneID 27154) | 2
0.0446 | 82.8 | 0.265 | 86.3 | inactive | BRPF3 (GeneID 27154) | 3
-0.135 | 79.2 | -1.09 | 118 | inactive | IQCF3 (GeneID 401067) | 1
-0.105 | 79.8 | 0.0209 | 88.7 | inactive | IQCF3 (GeneID 401067) | 2
0.0221 | 82.3 | -0.195 | 96.8 | inactive | IQCF3 (GeneID 401067) | 3
-0.269 | 76.5 | -0.478 | 97 | inactive | CD3G (GeneID 917) | 1
-1.97 | 42.7 | -1.93 | 79.3 | inactive | CD3G (GeneID 917) | 2
0.849 | 98.8 | 0.0422 | 109 | inactive | CD3G (GeneID 917) | 3
-0.18 | 78.3 | -0.125 | 90.4 | inactive | SNCA-AS1 (GeneID 644248) | 1
0.192 | 85.7 | 0.741 | 78.8 | inactive | SNCA-AS1 (GeneID 644248) | 2
2.16 | 125 | 1.75 | 87.9 | inactive | SNCA-AS1 (GeneID 644248) | 3
5.99 | 201 | 3.63 | 86.4 | active | NUCKS1 (GeneID 64710) | 1
0.769 | 97.2 | 0.351 | 99 | inactive | NUCKS1 (GeneID 64710) | 2
1.39 | 110 | 1.34 | 86 | inactive | NUCKS1 (GeneID 64710) | 3
0.586 | 93.5 | 0.0436 | 103 | inactive | PRND (GeneID 23627) | 1
1.06 | 103 | 0.886 | 91.2 | inactive | PRND (GeneID 23627) | 2
0.574 | 93.3 | 0.731 | 86 | inactive | PRND (GeneID 23627) | 3
1.3 | 108 | 1.16 | 88.6 | inactive | NES (GeneID 10763) | 1
-0.824 | 65.5 | -0.321 | 79.6 | inactive | NES (GeneID 10763) | 2
0.981 | 101 | 1.88 | 69.1 | inactive | NES (GeneID 10763) | 3
0.575 | 93.3 | 1.84 | 64.2 | inactive | GDF2 (GeneID 2658) | 1
0.246 | 86.8 | 0.761 | 79.4 | inactive | GDF2 (GeneID 2658) | 2
1.71 | 116 | 1.83 | 80 | inactive | GDF2 (GeneID 2658) | 3
-0.821 | 65.6 | -0.481 | 83.2 | inactive | CREG2 (GeneID 200407) | 1
-0.0901 | 80.1 | 0.00603 | 89.4 | inactive | CREG2 (GeneID 200407) | 2
0.721 | 96.2 | 0.778 | 87.6 | inactive | CREG2 (GeneID 200407) | 3
-0.266 | 76.6 | -0.723 | 104 | inactive | PDE4D (GeneID 5144) | 1
-0.0607 | 80.7 | 0.507 | 78.9 | inactive | PDE4D (GeneID 5144) | 2
-0.918 | 63.6 | -1.46 | 104 | inactive | PDE4D (GeneID 5144) | 3
0.456 | 90.9 | 0.295 | 94 | inactive | PDE4D (GeneID 5144) | 4
0.111 | 84.1 | 1.1 | 70.3 | inactive | PDE4D (GeneID 5144) | 5
0.405 | 89.9 | -0.213 | 106 | inactive | PDE4D (GeneID 5144) | 6
-0.0435 | 81 | -0.109 | 93.2 | inactive | PDE4D (GeneID 5144) | 7
-1.4 | 54 | -1.42 | 87.7 | inactive | PDE4D (GeneID 5144) | 8
0.157 | 85 | -1.05 | 125 | inactive | PDE4D (GeneID 5144) | 9
-1.86 | 44.9 | -2.11 | 87.5 | inactive | ARL6 (GeneID 84100) | 1
-0.829 | 65.4 | -0.998 | 95 | inactive | ARL6 (GeneID 84100) | 2
2.73 | 136 | 2.77 | 73.3 | inactive | ARL6 (GeneID 84100) | 3
0.0666 | 83.2 | 0.177 | 88.8 | inactive | TBX2 (GeneID 6909) | 1
0.4 | 89.8 | 0.119 | 97.3 | inactive | TBX2 (GeneID 6909) | 2
-2.55 | 31.3 | -2.09 | 60.6 | inactive | TBX2 (GeneID 6909) | 3

Reagents listed so far marked active (1):
total luciferase, z-score | total luciferase, % of control | luciferase per cell, z-score | viable cells, % of control | outcome | target gene | reagent no.
5.99 | 201 | 3.63 | 86.4 | active | NUCKS1 (GeneID 64710) | 1
